± gives the standard deviation of the averaged measurements. The list shows a part of the results. The list holds hits alone, and they repeat only in part.

Common to all, as to test: PRISMA enrichment of interactor (LFQ) in peptide spot vs all other peptide spots (log2 fold change); higher = stronger / more specific binding of the interactor to the peptide
For one assay, the target named is AKAP8L, Q9ULX6. The procedure:
(§1)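 PRISMA: 15-aa overlapping tiles (offset 8 aa) of 60 microproteins, plus SOS1/GLUT1 control peptides, were spot-synthesized on cellulose membranes in triplicate. Membranes were incubated with benzonase-treated HEK293T lysate, and bound proteins were identified by LC-MS/MS with LFQ. Enrichment is the log2 fold change of each protein in one spot versus all other spots. Only interactors passing the significance cutoff are listed.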

The next assay deals with CTNNA1, P35221. The procedure: as §1
Another assay concerns the target DBR1, Q9UK59. The procedure:
as §1

For the next assay, the target named is FKBP1A, P62942. On the procedure: as §1
Another assay addresses FLOT2, Q14254. The procedure: as §1
The next assay has as its target NDUFB7, P17568. On the procedure: as §1
The next assay has as its target NUP153, P49790. The procedure:
as §1

The next assay deals with PAF1, Q8N7H5. On the procedure: as §1
The target in a further assay is PDCD11, Q14690. On the procedure: as §1
A further assay concerns the target PFKL, P17858. The procedure:
as §1

The next assay addresses PUM2, Q8TB72. On the procedure: as §1
The target of another assay is SPTY2D1, Q68D10. The procedure:
as §1

The target in a further assay is TCEA1, P23193. On the procedure:
as §1

The target of another assay is UBXN1, Q04323. On the procedure:
as §1

The target in another assay is AK6, Q9Y3D8. The procedure: as §1
Another assay concerns the target ALDH9A1, P49189. The procedure:
as §1

Another assay addresses APEX1, P27695. The procedure: as §1
The next assay deals with CDC73, Q6P1J9. The procedure: as §1
The target of a further assay is CDK11A, Q9UQ88. The procedure:
as §1

A further assay concerns the target CKS2, P33552. On the procedure:
as §1

The target in the next assay is COPE, O14579. On the procedure:
as §1

In the next assay the target is CSNK2A1, P68400. On the procedure: as §1
The next assay addresses CWC15, Q9P013. The procedure:
as §1

The target in a further assay is DNAJB11, Q9UBS4. The procedure:
as §1

A further assay addresses EEF1E1, O43324. On the procedure:
as §1

A further assay addresses EIF1, P41567. On the procedure: as §1
Another assay concerns the target FAM98B, Q52LJ0. The procedure:
as §1

The next assay deals with GPD1L, Q8N335. The procedure: as §1
The next assay deals with GTPBP1, O00178. On the procedure:
as §1

Another assay has as its target KNOP1, Q1ED39. The procedure:
as §1

In another assay the target is MRPS28, Q9Y2Q9. On the procedure: as §1
A further assay has as its target PAICS, P22234. The procedure:
as §1

The next assay deals with PDLIM1, O00151. The procedure: as §1
Another assay addresses PGD, P52209. On the procedure:
as §1

In a further assay the target is PIGS, Q96S52. The procedure: as §1
The target in a further assay is PSMA5, P28066. The procedure:
as §1

Another assay concerns the target PSMB5, P28074. The procedure:
as §1

In another assay the target is RAB7A, P51149. On the procedure: as §1
For a further assay, the target named is RRP9, O43818. On the procedure:
as §1

A further assay deals with SDF2, Q99470. The procedure:
as §1

Another assay addresses SDF2L1, Q9HCN8. The procedure:
as §1

Another assay addresses SEC16A, O15027. On the procedure: as §1
A further assay concerns the target SSR1, P43307. On the procedure:
as §1

The next assay addresses TTC27, Q6P3X3. The procedure: as §1
For another assay, the target named is URB1, O60287. On the procedure:
as §1

The next assay addresses ANP32B, Q92688. The procedure:
as §1

Another assay deals with BAZ1A, Q9NRL2. On the procedure:
as §1

For a further assay, the target named is C1QBP, Q07021. On the procedure:
as §1

The target in another assay is FAM133B, Q5BKY9. On the procedure: as §1
Another assay has as its target FN1, P02751. On the procedure:
as §1

For the next assay, the target named is HMMR, O75330. The procedure:
as §1

The next assay has as its target IGLC3, P0DOY3. On the procedure:
as §1

A further assay has as its target MCM5, P33992. The procedure: as §1
The target in the next assay is NAP1L1, P55209. The procedure: as §1
Substrate in assay [1]: NSF, P46459
The procedure:
as §1

Another assay deals with PDIA4, P13667. On the procedure:
as §1

The target in the next assay is PDS5B, Q9NTI5. The procedure: as §1
In another assay the target is PTGES3, Q15185. On the procedure:
as §1

The target of a further assay is REXO4, Q9GZR2. On the procedure: as §1
For another assay, the target named is RPGRIP1L, Q68CZ1. The procedure:
as §1

The target of another assay is RPLP1, P05386. The procedure:
as §1

In the next assay the target is TK1, P04183. On the procedure:
as §1

For the next assay, the target named is TNPO3, Q9Y5L0. On the procedure: as §1
In another assay the target is ZFP62, Q8NB50. The procedure:
as §1

The target of the next assay is AKAP17A, Q02040. On the procedure: as §1
The target in a further assay is CCAR1, Q8IX12. The procedure: as §1
For the next assay, the target named is CCDC86, Q9H6F5. The procedure:
as §1

The next assay concerns the target CLSPN, Q9HAW4. On the procedure: as §1
A further assay deals with DDX19A, Q9NUU7. On the procedure:
as §1

The target in another assay is EIF2B4, Q9UI10. The procedure:
as §1

The target of another assay is EIF2B5, Q13144. The procedure: as §1
For the next assay, the target named is HSPBP1, Q9NZL4. On the procedure: as §1
The target of another assay is LEO1, Q8WVC0. On the procedure: as §1
The target in a further assay is MAT1A, Q00266. On the procedure:
as §1

Another assay deals with MED23, Q9ULK4. The procedure:
as §1

The next assay has as its target MOV10, Q9HCE1. On the procedure:
as §1

The next assay addresses MPC2, O95563. On the procedure: as §1
The target of another assay is NDUFB5, O43674. On the procedure: as §1
In a further assay the target is NOC2L, Q9Y3T9. The procedure:
as §1

A further assay has as its target NOL10, Q9BSC4. On the procedure:
as §1

The next assay addresses PHAX, Q9H814. The procedure: as §1
The target in the next assay is PPP1R2, P41236. On the procedure:
as §1

The target of a further assay is PRDX1, Q06830. The procedure: as §1

B1: RP11-644F5.11 (peptide)
chain: RPCPLLAGRTEFWPH
For B1, the “PRISMA enrichment of interactor (log2)” value was 3.8 in the assay with AKAP8L, Q9ULX6; 4.65 with CTNNA1, P35221; 4.48 in the assay with DBR1, Q9UK59; 4.24 with FKBP1A, P62942; 4.6 with FLOT2, Q14254; 4.61 with NDUFB7, P17568. Moreover, the “PRISMA enrichment of interactor (log2)” value in the assay with NUP153, P49790 was found to be 5.45; in the assay with PAF1, Q8N7H5, 5.43; with PDCD11, Q14690, 6.09; with PFKL, P17858, 5.43; with PUM2, Q8TB72, 4; in the assay with SPTY2D1, Q68D10, 6.03. Moreover, the “PRISMA enrichment of interactor (log2)” value in the assay with TCEA1, P23193 came to 3.93; in the assay with UBXN1, Q04323 it was 5.85.

B2: LINC01128 (peptide)
chain: HSWVTLVIHSGGDLT
Turning to B2, the “PRISMA enrichment of interactor (log2)” value with AK6, Q9Y3D8 was determined as 5.02; with ALDH9A1, P49189 it was 5.28; in the assay with APEX1, P27695, 3.98; with CDC73, Q6P1J9, 5.05; with CDK11A, Q9UQ88, 9.8; with CKS2, P33552 it was 4.88. For the same molecule, the “PRISMA enrichment of interactor (log2)” value with COPE, O14579 is 5.83; with CSNK2A1, P68400 it was 5.55; in the assay with CWC15, Q9P013, 4.5; with DNAJB11, Q9UBS4, 5.31; with EEF1E1, O43324, 5.37; in the assay with EIF1, P41567 it was 5.07. For the same molecule, the “PRISMA enrichment of interactor (log2)” value in the assay with FAM98B, Q52LJ0 amounted to 5.53; with FLOT2, Q14254 it was 8.54; in the assay with GPD1L, Q8N335 it was 5.23; in the assay with GTPBP1, O00178, 4.14; in the assay with KNOP1, Q1ED39, 5.98; in the assay with MRPS28, Q9Y2Q9, 4.76. In addition, the “PRISMA enrichment of interactor (log2)” value with PAICS, P22234 was determined as 4.82; with PDLIM1, O00151 it was 5.18; with PGD, P52209, 5.72; with PIGS, Q96S52 it was 4.23; in the assay with PSMA5, P28066 it was 4.01; with PSMB5, P28074, 5.95. Further, the “PRISMA enrichment of interactor (log2)” value with RAB7A, P51149 turned out to be 5.68; with RRP9, O43818, 6; with SDF2, Q99470, 4.09; with SDF2L1, Q9HCN8, 5.01; with SEC16A, O15027, 4.64; with SSR1, P43307, 4.31. The “PRISMA enrichment of interactor (log2)” value with TTC27, Q6P3X3 was 4.27; in the assay with URB1, O60287, 6.05.

B3: THAP7 (peptide)
chain: TAPPPAAAHGTRARR
Turning to B3, the “PRISMA enrichment of interactor (log2)” value in the assay with AK6, Q9Y3D8 is 4.75; with ANP32B, Q92688, 6.08; in the assay with BAZ1A, Q9NRL2, 8.92; with C1QBP, Q07021, 6.5; with FAM133B, Q5BKY9, 11.5; with FN1, P02751, 4.53. Also, the “PRISMA enrichment of interactor (log2)” value with HMMR, O75330 was 6.1; in the assay with IGLC3, P0DOY3 it was 9.67; in the assay with MCM5, P33992 it was 5.54; with NAP1L1, P55209, 5.28 ± 0.45; in [1], 7.42; with PDIA4, P13667 it was 6.12. Moreover, the “PRISMA enrichment of interactor (log2)” value in the assay with PDS5B, Q9NTI5 worked out at 4.22; with PTGES3, Q15185 it was 4.62; in the assay with REXO4, Q9GZR2 it was 6.08; with RPGRIP1L, Q68CZ1, 4.61; with RPLP1, P05386 it was 5.91; with TK1, P04183, 4.19. For the same molecule, the “PRISMA enrichment of interactor (log2)” value in the assay with TNPO3, Q9Y5L0 was 5.17; with ZFP62, Q8NB50 it was 7.03.

B4: CUL5 (peptide)
chain: LPERVHEVFRVGKLR
On to B4, for which the “PRISMA enrichment of interactor (log2)” value with AKAP17A, Q02040 was 4.26; with CCAR1, Q8IX12, 4.77; with CCDC86, Q9H6F5 it was 5.4; in the assay with CLSPN, Q9HAW4 it was 4.69; with DDX19A, Q9NUU7 it was 6.76; with EIF2B4, Q9UI10, 5.01. Further, the “PRISMA enrichment of interactor (log2)” value in the assay with EIF2B5, Q13144 is 5.25; in the assay with HSPBP1, Q9NZL4 it was 7.16; in the assay with LEO1, Q8WVC0 it was 5.44; with MAT1A, Q00266, 5.4; with MED23, Q9ULK4, 5.39; with MOV10, Q9HCE1 it was 4.66. Besides, the “PRISMA enrichment of interactor (log2)” value with MPC2, O95563 came out at 4.1; in the assay with NDUFB5, O43674, 4.62; with NOC2L, Q9Y3T9, 4.66; with NOL10, Q9BSC4 it was 5.33; with PHAX, Q9H814 it was 4.34; with PPP1R2, P41236 it was 4.46. In the assay with PRDX1, Q06830, the “PRISMA enrichment of interactor (log2)” value stood at 7.96.

These data come from the supplement of paper PMC10032668.
